# This is one part of the list.
# Chains of the proteins cited; added tags and fusions are not shown. Lines headed by an entry give the natural chain unless they say otherwise; changes in a name come on top.
# UniProt Q14894: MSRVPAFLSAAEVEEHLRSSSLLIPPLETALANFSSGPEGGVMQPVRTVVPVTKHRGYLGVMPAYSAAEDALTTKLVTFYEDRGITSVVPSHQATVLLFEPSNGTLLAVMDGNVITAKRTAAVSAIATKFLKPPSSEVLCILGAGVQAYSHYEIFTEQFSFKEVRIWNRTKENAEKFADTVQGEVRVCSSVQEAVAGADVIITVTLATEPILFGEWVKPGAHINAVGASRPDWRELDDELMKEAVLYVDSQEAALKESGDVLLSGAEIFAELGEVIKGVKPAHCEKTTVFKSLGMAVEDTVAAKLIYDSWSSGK
# UniProt Q8N6G5: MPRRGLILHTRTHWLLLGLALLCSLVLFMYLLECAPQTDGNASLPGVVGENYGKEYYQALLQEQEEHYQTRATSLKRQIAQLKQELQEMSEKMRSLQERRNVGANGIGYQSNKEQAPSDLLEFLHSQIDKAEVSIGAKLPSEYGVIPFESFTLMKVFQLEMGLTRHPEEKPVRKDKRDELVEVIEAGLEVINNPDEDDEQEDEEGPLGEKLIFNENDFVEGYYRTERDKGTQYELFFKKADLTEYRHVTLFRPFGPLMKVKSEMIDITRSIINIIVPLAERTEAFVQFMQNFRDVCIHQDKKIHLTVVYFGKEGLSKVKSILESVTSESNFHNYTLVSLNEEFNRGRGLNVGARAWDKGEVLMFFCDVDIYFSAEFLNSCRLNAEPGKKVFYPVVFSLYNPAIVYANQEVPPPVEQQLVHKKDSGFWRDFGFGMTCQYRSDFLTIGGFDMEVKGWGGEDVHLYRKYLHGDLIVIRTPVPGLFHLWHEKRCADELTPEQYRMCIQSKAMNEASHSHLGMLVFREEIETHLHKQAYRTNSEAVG
# UniProt Q8NI51: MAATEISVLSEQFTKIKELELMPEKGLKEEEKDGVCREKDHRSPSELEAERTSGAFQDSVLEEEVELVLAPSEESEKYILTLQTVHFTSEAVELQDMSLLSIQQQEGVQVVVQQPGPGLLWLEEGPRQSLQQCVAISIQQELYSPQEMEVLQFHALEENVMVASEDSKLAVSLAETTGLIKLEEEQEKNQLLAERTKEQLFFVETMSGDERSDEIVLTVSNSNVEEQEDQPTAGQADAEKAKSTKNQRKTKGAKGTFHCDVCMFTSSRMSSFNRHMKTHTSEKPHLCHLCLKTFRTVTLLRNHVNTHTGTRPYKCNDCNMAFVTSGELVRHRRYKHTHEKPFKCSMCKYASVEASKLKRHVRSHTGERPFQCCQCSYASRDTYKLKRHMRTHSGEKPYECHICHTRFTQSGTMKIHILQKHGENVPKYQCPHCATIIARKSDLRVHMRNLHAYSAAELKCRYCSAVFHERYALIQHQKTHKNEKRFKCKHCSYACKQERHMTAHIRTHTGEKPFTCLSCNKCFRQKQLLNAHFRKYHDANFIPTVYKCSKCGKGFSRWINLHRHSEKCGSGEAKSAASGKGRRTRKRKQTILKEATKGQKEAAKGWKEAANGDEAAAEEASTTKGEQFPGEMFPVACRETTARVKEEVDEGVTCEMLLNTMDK
# UniProt Q16527: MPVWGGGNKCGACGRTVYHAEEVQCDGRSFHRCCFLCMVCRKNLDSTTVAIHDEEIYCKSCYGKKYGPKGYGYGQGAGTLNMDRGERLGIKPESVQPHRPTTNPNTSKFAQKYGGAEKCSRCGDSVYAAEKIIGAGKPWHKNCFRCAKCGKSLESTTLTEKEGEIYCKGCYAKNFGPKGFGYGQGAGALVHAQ
# UniProt O95715: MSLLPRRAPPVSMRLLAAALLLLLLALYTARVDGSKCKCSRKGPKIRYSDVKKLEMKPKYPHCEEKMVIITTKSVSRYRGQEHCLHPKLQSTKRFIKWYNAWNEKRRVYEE
# UniProt O75534: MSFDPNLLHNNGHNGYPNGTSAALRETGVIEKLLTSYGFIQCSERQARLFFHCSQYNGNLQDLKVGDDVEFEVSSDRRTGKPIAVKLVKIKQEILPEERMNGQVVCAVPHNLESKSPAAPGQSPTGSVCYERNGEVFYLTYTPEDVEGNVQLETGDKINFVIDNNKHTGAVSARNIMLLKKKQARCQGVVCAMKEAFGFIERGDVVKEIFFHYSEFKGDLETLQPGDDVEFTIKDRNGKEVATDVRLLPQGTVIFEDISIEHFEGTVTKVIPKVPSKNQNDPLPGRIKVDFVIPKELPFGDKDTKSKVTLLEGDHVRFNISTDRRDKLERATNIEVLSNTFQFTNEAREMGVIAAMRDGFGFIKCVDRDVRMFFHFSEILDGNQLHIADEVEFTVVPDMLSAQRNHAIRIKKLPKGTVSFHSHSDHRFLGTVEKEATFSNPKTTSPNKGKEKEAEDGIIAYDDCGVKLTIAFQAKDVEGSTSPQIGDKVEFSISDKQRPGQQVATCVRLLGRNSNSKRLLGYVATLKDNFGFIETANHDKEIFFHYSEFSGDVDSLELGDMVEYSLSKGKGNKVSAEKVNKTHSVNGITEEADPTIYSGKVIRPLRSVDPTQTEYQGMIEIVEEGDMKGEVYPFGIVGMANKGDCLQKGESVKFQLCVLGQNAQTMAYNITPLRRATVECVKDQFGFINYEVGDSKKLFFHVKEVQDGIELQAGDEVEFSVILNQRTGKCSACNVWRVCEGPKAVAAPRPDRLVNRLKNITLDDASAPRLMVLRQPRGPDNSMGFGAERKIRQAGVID
# UniProt O60931: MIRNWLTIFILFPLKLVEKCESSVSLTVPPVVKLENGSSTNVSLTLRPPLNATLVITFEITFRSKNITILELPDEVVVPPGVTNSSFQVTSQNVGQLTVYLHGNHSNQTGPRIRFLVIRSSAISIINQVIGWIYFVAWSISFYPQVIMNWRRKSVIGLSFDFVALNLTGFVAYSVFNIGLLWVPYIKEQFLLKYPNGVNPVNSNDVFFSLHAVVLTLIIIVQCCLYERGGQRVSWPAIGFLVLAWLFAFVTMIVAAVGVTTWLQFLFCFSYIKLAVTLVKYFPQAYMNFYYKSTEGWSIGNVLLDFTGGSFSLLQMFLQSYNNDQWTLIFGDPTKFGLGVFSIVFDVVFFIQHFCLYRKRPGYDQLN
# UniProt Q9UKG9: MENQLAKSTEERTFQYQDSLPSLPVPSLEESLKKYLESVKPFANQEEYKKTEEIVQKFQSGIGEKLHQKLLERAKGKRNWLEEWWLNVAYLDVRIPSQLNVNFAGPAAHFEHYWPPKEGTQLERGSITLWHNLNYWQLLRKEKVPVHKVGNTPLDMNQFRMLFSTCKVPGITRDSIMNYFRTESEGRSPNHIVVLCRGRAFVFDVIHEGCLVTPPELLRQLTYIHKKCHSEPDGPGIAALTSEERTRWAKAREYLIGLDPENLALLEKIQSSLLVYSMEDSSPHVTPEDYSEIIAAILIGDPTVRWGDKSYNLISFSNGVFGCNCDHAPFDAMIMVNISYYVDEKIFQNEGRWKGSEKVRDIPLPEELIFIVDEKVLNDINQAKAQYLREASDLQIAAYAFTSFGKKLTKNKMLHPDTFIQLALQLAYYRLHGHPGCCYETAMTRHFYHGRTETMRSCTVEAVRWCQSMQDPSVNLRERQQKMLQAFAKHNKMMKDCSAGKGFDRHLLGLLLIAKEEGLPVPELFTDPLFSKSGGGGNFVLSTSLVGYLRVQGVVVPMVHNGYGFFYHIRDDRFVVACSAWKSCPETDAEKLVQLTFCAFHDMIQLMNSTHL
# UniProt Q96DE9: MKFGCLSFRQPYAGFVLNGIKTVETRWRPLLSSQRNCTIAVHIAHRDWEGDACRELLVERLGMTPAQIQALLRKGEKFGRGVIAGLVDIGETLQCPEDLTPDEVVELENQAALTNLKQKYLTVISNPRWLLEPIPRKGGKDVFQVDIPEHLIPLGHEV
# UniProt Q49AN0: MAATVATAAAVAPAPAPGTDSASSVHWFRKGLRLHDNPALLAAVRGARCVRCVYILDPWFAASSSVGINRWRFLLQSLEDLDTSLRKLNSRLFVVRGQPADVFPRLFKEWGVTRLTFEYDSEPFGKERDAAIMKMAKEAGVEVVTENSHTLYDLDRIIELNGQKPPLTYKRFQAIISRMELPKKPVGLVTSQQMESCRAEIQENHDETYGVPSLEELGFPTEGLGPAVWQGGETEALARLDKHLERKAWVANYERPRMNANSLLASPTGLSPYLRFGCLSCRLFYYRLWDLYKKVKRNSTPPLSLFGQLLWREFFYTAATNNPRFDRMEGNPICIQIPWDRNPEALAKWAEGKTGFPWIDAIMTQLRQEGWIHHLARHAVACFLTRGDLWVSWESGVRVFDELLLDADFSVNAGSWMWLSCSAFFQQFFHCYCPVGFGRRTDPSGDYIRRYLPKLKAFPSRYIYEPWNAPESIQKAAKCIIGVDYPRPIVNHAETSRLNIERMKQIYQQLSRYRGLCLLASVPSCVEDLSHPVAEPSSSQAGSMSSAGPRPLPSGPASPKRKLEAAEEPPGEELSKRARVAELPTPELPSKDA
# UniProt Q96RY5: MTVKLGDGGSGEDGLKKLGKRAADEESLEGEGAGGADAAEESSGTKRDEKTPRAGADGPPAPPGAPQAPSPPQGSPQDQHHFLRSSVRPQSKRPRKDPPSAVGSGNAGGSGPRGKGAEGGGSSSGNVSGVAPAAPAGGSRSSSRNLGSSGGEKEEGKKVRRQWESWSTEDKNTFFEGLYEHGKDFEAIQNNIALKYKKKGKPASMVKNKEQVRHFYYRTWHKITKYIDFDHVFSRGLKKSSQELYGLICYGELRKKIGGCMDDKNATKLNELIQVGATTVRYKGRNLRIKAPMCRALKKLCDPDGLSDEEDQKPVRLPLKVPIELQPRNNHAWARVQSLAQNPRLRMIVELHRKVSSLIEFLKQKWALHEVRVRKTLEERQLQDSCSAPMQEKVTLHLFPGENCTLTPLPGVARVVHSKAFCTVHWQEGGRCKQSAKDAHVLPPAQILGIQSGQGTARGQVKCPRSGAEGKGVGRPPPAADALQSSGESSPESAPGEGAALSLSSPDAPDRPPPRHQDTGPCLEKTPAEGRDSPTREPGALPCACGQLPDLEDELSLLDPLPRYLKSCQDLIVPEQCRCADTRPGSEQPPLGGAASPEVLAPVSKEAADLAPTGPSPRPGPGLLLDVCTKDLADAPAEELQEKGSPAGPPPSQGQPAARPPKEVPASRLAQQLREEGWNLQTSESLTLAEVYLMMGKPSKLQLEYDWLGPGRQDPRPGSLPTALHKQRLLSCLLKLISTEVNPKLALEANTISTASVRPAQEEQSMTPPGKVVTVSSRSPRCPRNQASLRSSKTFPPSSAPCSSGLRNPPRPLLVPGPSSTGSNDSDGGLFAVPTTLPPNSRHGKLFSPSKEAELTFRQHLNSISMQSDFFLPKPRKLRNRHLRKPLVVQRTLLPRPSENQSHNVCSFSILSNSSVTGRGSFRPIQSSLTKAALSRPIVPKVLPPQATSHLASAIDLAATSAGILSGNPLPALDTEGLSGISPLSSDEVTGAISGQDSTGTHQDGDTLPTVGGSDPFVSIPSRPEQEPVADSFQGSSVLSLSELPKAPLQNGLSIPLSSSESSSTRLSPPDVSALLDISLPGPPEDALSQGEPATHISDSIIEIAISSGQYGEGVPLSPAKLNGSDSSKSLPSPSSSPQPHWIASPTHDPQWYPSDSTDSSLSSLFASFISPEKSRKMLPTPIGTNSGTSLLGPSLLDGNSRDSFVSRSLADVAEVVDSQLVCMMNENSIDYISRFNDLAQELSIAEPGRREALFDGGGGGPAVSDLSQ
# UniProt Q16526: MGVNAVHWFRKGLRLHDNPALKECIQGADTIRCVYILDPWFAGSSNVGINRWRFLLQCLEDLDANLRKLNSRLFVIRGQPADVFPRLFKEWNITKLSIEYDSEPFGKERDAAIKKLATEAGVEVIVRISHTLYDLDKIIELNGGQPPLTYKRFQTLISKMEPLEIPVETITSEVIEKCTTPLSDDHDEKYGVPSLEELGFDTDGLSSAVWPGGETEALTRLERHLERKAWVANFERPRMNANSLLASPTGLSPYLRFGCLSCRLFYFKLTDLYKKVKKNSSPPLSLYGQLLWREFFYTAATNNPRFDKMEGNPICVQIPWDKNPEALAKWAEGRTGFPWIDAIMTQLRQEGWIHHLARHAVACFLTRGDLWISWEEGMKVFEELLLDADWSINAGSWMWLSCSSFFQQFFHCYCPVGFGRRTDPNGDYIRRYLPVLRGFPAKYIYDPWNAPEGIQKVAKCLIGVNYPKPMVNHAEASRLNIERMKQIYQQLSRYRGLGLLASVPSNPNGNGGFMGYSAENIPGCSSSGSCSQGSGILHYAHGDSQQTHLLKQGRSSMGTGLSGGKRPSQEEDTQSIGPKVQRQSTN
# UniProt P48729: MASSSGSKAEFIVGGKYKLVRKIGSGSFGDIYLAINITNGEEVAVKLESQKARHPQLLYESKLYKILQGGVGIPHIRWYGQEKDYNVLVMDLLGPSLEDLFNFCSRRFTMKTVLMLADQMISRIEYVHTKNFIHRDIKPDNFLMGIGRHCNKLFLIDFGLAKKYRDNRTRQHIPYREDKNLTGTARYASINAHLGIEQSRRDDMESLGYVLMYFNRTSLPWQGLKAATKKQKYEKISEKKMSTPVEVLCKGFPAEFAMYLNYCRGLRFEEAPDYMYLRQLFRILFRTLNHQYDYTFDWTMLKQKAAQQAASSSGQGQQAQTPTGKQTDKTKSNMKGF
# Tests used:
# Assay in all cases: log2 fold change, soluble protein after heating vs DMSO (PISA); higher = thermal stabilisation; K562 lysate, 10 uM; active = over 0.2 and 3.5 SD of the protein, either way, in both replicates (recomputed)
# [1] = compound: C/C(=N\NC(=O)C1=CC(=CC=C1)S(=O)(=O)N2CCOCC2)/C3=C(C=CC(=C3)Cl)O
# Procedure, shortened: (§1)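 K562 pellets were dounce-homogenised in PBS pH 7.4 with 1 mM MgCl2, and the crude extract at 1 mg/mL protein was treated with 10 μM compound for 30 min. Aliquots were heated for 3 min across 48°C-58°C, pooled, and brought to 0.5% NP-40 at 4°C; soluble protein was the supernatant after 21,000xg for 90 min. Soluble protein was quantified by TMTpro 16plex LC-MS/MS with channel sums equalised, and reported as log2 fold change in thermal stability against DMSO controls, with values from duplicates.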
# [2] = compound: C1=CC2=C(C=CC(=C2)/C=C\3/C(=O)NC(=NCC4=CC=CS4)S3)N=C1
# Procedure, shortened: as §1
# [3] = compound: C1=CC2=NC=CN=C2C=C1/C=C/3\C(=O)NC(=O)S3
# Procedure, shortened: as §1
# [4] = compound: C1=CC=C(C=C1)C2=NC(=C(N2)C3=CC=NC=C3)C4=CC(=C(C=C4)Cl)O
# Procedure, shortened: as §1
# [5] = compound: C1=CC=C2C(=C1)C3=NNC4=CC=CC(=C43)C2=O
# Procedure, shortened: as §1
# [6] = compound: C1CCN(C1)C(=O)NC2=CC=CC(=C2)NC3=NC=C(C(=N3)NCCC4=CN=CN4)Br
# Procedure, shortened: as §1
# [7] = compound: C1CN(CCC1(CC2=CC=C(C=C2)Cl)N)C3=NC=NC4=C3C=CN4
# Procedure, shortened: as §1
# IRAK-1-4 Inhibitor I = compound: C1COCCN1CCN2C3=CC=CC=C3N=C2NC(=O)C4=CC(=CC=C4)[N+](=O)[O-] [IRAK-1-4 Inhibitor I]
# Procedure, shortened: as §1
# ibrutinib = compound: C=CC(=O)N1CCC[C@@H](n2nc(-c3ccc(Oc4ccccc4)cc3)c3c(N)ncnc32)C1 [ibrutinib]
# Procedure, shortened: as §1
# [8] = compound: CC(=O)c1cnc2ccc(-c3cc(Cl)c(O)c(Cl)c3)nc2c1N[C@H]1CC[C@H](CN(C)C)CC1
# Procedure, shortened: as §1
# ralimetinib = compound: CC(C)(C)Cn1c(N)nc2ccc(-c3[nH]c(C(C)(C)C)nc3-c3ccc(F)cc3)nc21 [ralimetinib]
# Procedure, shortened: as §1
# [9] = compound: CC(C)(O)CC(=O)NCCn1ccc2ncnc(Nc3ccc(Oc4cccc(C(F)(F)F)c4)c(Cl)c3)c21
# Procedure, shortened: as §1
# [10] = compound: CC1=C(C=C(C=C1)NC(=O)C2=CC(=CC=C2)C(C)(C)C#N)NC3=CC4=C(C=C3)N=CN(C4=O)C
# Procedure, shortened: as §1
# [11] = compound: CC1=C(C=C(C=C1)NC(=O)C2=CC(=CC=C2)N(C)C)NC(=O)C3=CC=C(C=C3)O
# Procedure, shortened: as §1
# [12] = compound: CC1=CC=C(C=C1)SC2=C3C=C(SC3=CN=C2)C(=O)N
# Procedure, shortened: as §1
# erlotinib = compound: C#Cc1cccc(Nc2ncnc3cc(OCCOC)c(OCCOC)cc23)c1 [erlotinib]
# Procedure, shortened: as §1
# [13] = compound: C1=CC(=CC=C1C2=NC3=C(N2)C=C(C=C3)C(=O)N)OC4=CC=C(C=C4)Cl
# Procedure, shortened: as §1
# [14] = compound: CC(C)C1=C2N=C(C=C(N2N=C1)NCC3=CC=CC=C3)NCCCCCCN
# Procedure, shortened: as §1
# [15] = compound: CC1=C(C2=C(C=C1)C(=O)C3=CC=CC=C3N2CCCN)C
# Procedure, shortened: as §1
# [16] = compound: CC1=C(C(CC(=O)N1)C2=CC=C(C=C2)C(F)(F)F)C(=O)NC3=C(C=C4C(=C3)C=NN4)F
# Procedure, shortened: as §1
target,measurement,setting,value
CRYM (UniProt Q14894),log2 fold change,[1],inactive: -0.136
same,log2 fold change,[2],inactive: -0.092
same,log2 fold change,[3],inactive: -0.097
same,log2 fold change,[4],inactive: 0.19
same,log2 fold change,[5],inactive: -0.008
same,log2 fold change,[6],inactive: -0.078
same,log2 fold change,[7],inactive: 0.029
same,log2 fold change,IRAK-1-4 Inhibitor I,inactive: -0.133
same,log2 fold change,ibrutinib,inactive: 0.013
same,log2 fold change,[8],inactive: 0.052
same,log2 fold change,ralimetinib,inactive: -0.235
same,log2 fold change,[9],inactive: -0.203
same,log2 fold change,[10],inactive: 0.136
same,log2 fold change,[11],inactive: 0.12
same,log2 fold change,[12],inactive: 0.063
CSGALNACT2 (UniProt Q8N6G5),log2 fold change,erlotinib,inactive: 0.026
same,log2 fold change,[13],inactive: -0.257
same,log2 fold change,[8],inactive: -0.091
same,log2 fold change,[14],inactive: -0.021
same,log2 fold change,[15],inactive: -0.132
same,log2 fold change,[10],inactive: 0.135
same,log2 fold change,[12],inactive: 0.091
CTCFL isoform 7 (UniProt Q8NI51),log2 fold change,[3],inactive: -0.008
same,log2 fold change,[6],inactive: 0.121
same,log2 fold change,[7],inactive: 0.31
same,log2 fold change,ibrutinib,inactive: 0.097
same,log2 fold change,[16],inactive: -0.013
same,log2 fold change,[10],inactive: 0.156
"CSNK2A1, A0A2R8Y4D6",log2 fold change,[8],inactive: 0.172
same,log2 fold change,[12],inactive: -0.292
CSRP2 (UniProt Q16527),log2 fold change,[3],inactive: -0.097
same,log2 fold change,[6],inactive: 0.043
same,log2 fold change,[7],inactive: -0.003
same,log2 fold change,ibrutinib,inactive: 0.054
same,log2 fold change,[10],inactive: 0.271
CXCL14 (UniProt O95715),log2 fold change,[1],inactive: 0.119
same,log2 fold change,[2],inactive: -0.094
same,log2 fold change,[3],inactive: -0.09
same,log2 fold change,[5],inactive: -0.268
same,log2 fold change,[6],inactive: -0.444
same,log2 fold change,[7],inactive: 0.119
same,log2 fold change,ibrutinib,inactive: -0.012
CSNK1D (UniProt P48730),log2 fold change,[1],inactive: -0.32
same,log2 fold change,[2],inactive: -0.06
same,log2 fold change,[3],inactive: 0.039
same,log2 fold change,[4],inactive: 0.124
same,log2 fold change,[5],active: 0.415
same,log2 fold change,[6],inactive: -0.031
same,log2 fold change,[7],inactive: 0.013
same,log2 fold change,IRAK-1-4 Inhibitor I,inactive: -0.048
same,log2 fold change,ibrutinib,inactive: -0.086
same,log2 fold change,[8],active: 0.494
same,log2 fold change,ralimetinib,inactive: -0.038
same,log2 fold change,[9],inactive: -0.112
same,log2 fold change,[16],inactive: 0.245
same,log2 fold change,[15],inactive: -0.151
same,log2 fold change,[10],inactive: -0.001
same,log2 fold change,[11],inactive: -0.143
same,log2 fold change,[12],inactive: 0.179
CYLD (UniProt Q9NQC7),log2 fold change,erlotinib,inactive: 0.029
same,log2 fold change,[13],inactive: 0.043
same,log2 fold change,[14],inactive: 0.034
same,log2 fold change,[10],inactive: 0.055
CSDE1 isoform 3 (UniProt O75534),log2 fold change,[3],inactive: 0.13
same,log2 fold change,[4],inactive: 0.027
same,log2 fold change,IRAK-1-4 Inhibitor I,inactive: -0.011
same,log2 fold change,ibrutinib,inactive: 0.051
same,log2 fold change,[8],inactive: -0.331
same,log2 fold change,ralimetinib,inactive: 0.047
same,log2 fold change,[9],inactive: 0.019
same,log2 fold change,[16],inactive: -0.112
same,log2 fold change,[10],inactive: -0.009
same,log2 fold change,[11],inactive: -0.137
same,log2 fold change,[12],inactive: 0.031
CRNN (UniProt Q9UBG3),log2 fold change,[1],inactive: -1.2
same,log2 fold change,[2],inactive: -0.562
same,log2 fold change,[5],inactive: 0.002
same,log2 fold change,[16],inactive: 2
CTDSP1 (UniProt Q9GZU7),log2 fold change,[4],inactive: -0.041
same,log2 fold change,IRAK-1-4 Inhibitor I,inactive: 0.076
same,log2 fold change,ralimetinib,inactive: 0.02
same,log2 fold change,[9],inactive: -0.127
same,log2 fold change,[15],inactive: 0.037
same,log2 fold change,[10],inactive: -0.036
same,log2 fold change,[11],inactive: 0.096
CXXC5 (UniProt Q7LFL8),log2 fold change,[15],inactive: -0.016
CTDSP1 isoform 3 (UniProt Q9GZU7),log2 fold change,[3],inactive: -0.103
same,log2 fold change,ibrutinib,inactive: 0.009
CWC25 (UniProt Q9NXE8),log2 fold change,[1],inactive: 0.043
same,log2 fold change,[2],inactive: 0.038
same,log2 fold change,[3],inactive: 0
same,log2 fold change,[5],inactive: 0.028
same,log2 fold change,[6],inactive: 0.085
same,log2 fold change,[7],inactive: -0.379
same,log2 fold change,ibrutinib,inactive: 0.145
same,log2 fold change,[8],inactive: 0.011
same,log2 fold change,[16],inactive: 0.173
same,log2 fold change,[10],inactive: 0.424
same,log2 fold change,[12],inactive: 0.015
CTSS (UniProt P25774),log2 fold change,erlotinib,inactive: -0.004
same,log2 fold change,[13],inactive: -0.289
same,log2 fold change,[6],inactive: 0.088
same,log2 fold change,[7],inactive: 0.018
same,log2 fold change,[14],inactive: 0.042
same,log2 fold change,[15],inactive: -0.036
CTNS isoform 2 (UniProt O60931),log2 fold change,[1],inactive: -0.124
same,log2 fold change,[2],inactive: -0.059
same,log2 fold change,[3],inactive: 0.04
same,log2 fold change,[4],inactive: 0.144
same,log2 fold change,[5],inactive: 0.042
same,log2 fold change,[6],inactive: 0.061
same,log2 fold change,[7],inactive: -0.009
same,log2 fold change,IRAK-1-4 Inhibitor I,inactive: -0.081
same,log2 fold change,ibrutinib,inactive: 0.016
same,log2 fold change,ralimetinib,inactive: 0.051
same,log2 fold change,[9],inactive: 0.177
same,log2 fold change,[15],inactive: 0.014
same,log2 fold change,[10],inactive: 0.103
same,log2 fold change,[11],inactive: -0.292
CTIF (UniProt O43310),log2 fold change,[1],inactive: 0.193
same,log2 fold change,[2],inactive: -0.232
same,log2 fold change,[5],inactive: -0.124
CROT isoform 3 (UniProt Q9UKG9),log2 fold change,erlotinib,inactive: 0.04
same,log2 fold change,[13],inactive: 0.14
same,log2 fold change,[6],inactive: 0.267
same,log2 fold change,[7],inactive: -0.02
same,log2 fold change,[14],inactive: -0.119
same,log2 fold change,[16],inactive: -0.02
same,log2 fold change,[10],inactive: -0.034
CXorf40B (UniProt Q96DE9),log2 fold change,[1],inactive: 0.213
same,log2 fold change,[2],inactive: 0.234
same,log2 fold change,[3],inactive: -0.12
same,log2 fold change,[4],inactive: -0.091
same,log2 fold change,[5],inactive: -0.165
same,log2 fold change,IRAK-1-4 Inhibitor I,inactive: -0.017
same,log2 fold change,ibrutinib,inactive: 0.181
same,log2 fold change,[8],inactive: 0.011
same,log2 fold change,ralimetinib,inactive: -0.066
same,log2 fold change,[9],inactive: 0.032
same,log2 fold change,[16],inactive: -0.14
same,log2 fold change,[15],inactive: 0.165
same,log2 fold change,[10],inactive: 0.078
same,log2 fold change,[11],inactive: 0.073
same,log2 fold change,[12],inactive: -0.161
CTDNEP1 (UniProt O95476),log2 fold change,[15],inactive: -0.015
same,log2 fold change,[10],inactive: -0.054
CRY2 (UniProt Q49AN0),log2 fold change,[1],inactive: 0
same,log2 fold change,[2],inactive: -0.186
same,log2 fold change,[5],inactive: 0.032
same,log2 fold change,[16],inactive: 0.013
CSNK1G3 isoform 4 (UniProt Q9Y6M4),log2 fold change,[8],inactive: 0.235
same,log2 fold change,[12],inactive: -0.142
CROCCP2 (UniProt Q86T23),log2 fold change,erlotinib,inactive: -0.025
same,log2 fold change,[13],inactive: 0.044
same,log2 fold change,[6],inactive: -0.111
same,log2 fold change,[7],inactive: 0.117
same,log2 fold change,[8],inactive: -0.138
same,log2 fold change,[14],inactive: -0.072
same,log2 fold change,[16],inactive: 0.159
same,log2 fold change,[10],inactive: 0.028
same,log2 fold change,[12],inactive: -0.285
CRAMP1 (UniProt Q96RY5),log2 fold change,[1],inactive: -0.183
same,log2 fold change,[2],inactive: 0.227
same,log2 fold change,[5],inactive: -0.294
same,log2 fold change,[6],inactive: 0.008
same,log2 fold change,[7],inactive: -0.04
same,log2 fold change,[15],inactive: 0.097
"CYFIP1, A0A0G2JRV9",log2 fold change,[8],inactive: 0.051
same,log2 fold change,[16],inactive: -0.172
same,log2 fold change,[12],inactive: 0.012
CRY1 (UniProt Q16526),log2 fold change,[16],inactive: -0.107
CSNK1A1 isoform 3 (UniProt P48729),log2 fold change,[4],inactive: -0.006
same,log2 fold change,IRAK-1-4 Inhibitor I,inactive: 0.088
same,log2 fold change,ralimetinib,inactive: 0.13
same,log2 fold change,[9],inactive: 0.253
same,log2 fold change,[15],inactive: -0.061
same,log2 fold change,[11],inactive: 0.143

# Retrieved one by one from the entries so far (3):
target,measurement,setting,value
CXCL14 (UniProt O95715),log2 fold change,[6],inactive: -0.444
CSDE1 isoform 3 (UniProt O75534),log2 fold change,[11],inactive: -0.137
CXCL14 (UniProt O95715),log2 fold change,[2],inactive: -0.094

# Rewritten bar-delimited: entries from further up
target | measurement | setting | value
CRAMP1 (UniProt Q96RY5) | log2 fold change | [6] | inactive: 0.008
same | log2 fold change | [7] | inactive: -0.04
same | log2 fold change | [15] | inactive: 0.097
CYFIP1, A0A0G2JRV9 | log2 fold change | [8] | inactive: 0.051
